Measured values from article PMC10364419.

Chains of the proteins cited; added tags and fusions are not shown. Lines headed by an entry give the natural chain unless they say otherwise; changes in a name come on top.
UniProt O00165: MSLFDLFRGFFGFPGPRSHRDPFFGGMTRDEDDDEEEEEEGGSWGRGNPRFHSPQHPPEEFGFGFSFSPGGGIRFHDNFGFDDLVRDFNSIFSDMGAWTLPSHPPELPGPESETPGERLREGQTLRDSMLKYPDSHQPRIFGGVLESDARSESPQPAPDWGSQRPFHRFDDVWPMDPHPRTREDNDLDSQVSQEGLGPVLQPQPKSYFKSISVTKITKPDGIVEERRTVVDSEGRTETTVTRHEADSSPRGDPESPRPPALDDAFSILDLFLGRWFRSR
UniProt P46940: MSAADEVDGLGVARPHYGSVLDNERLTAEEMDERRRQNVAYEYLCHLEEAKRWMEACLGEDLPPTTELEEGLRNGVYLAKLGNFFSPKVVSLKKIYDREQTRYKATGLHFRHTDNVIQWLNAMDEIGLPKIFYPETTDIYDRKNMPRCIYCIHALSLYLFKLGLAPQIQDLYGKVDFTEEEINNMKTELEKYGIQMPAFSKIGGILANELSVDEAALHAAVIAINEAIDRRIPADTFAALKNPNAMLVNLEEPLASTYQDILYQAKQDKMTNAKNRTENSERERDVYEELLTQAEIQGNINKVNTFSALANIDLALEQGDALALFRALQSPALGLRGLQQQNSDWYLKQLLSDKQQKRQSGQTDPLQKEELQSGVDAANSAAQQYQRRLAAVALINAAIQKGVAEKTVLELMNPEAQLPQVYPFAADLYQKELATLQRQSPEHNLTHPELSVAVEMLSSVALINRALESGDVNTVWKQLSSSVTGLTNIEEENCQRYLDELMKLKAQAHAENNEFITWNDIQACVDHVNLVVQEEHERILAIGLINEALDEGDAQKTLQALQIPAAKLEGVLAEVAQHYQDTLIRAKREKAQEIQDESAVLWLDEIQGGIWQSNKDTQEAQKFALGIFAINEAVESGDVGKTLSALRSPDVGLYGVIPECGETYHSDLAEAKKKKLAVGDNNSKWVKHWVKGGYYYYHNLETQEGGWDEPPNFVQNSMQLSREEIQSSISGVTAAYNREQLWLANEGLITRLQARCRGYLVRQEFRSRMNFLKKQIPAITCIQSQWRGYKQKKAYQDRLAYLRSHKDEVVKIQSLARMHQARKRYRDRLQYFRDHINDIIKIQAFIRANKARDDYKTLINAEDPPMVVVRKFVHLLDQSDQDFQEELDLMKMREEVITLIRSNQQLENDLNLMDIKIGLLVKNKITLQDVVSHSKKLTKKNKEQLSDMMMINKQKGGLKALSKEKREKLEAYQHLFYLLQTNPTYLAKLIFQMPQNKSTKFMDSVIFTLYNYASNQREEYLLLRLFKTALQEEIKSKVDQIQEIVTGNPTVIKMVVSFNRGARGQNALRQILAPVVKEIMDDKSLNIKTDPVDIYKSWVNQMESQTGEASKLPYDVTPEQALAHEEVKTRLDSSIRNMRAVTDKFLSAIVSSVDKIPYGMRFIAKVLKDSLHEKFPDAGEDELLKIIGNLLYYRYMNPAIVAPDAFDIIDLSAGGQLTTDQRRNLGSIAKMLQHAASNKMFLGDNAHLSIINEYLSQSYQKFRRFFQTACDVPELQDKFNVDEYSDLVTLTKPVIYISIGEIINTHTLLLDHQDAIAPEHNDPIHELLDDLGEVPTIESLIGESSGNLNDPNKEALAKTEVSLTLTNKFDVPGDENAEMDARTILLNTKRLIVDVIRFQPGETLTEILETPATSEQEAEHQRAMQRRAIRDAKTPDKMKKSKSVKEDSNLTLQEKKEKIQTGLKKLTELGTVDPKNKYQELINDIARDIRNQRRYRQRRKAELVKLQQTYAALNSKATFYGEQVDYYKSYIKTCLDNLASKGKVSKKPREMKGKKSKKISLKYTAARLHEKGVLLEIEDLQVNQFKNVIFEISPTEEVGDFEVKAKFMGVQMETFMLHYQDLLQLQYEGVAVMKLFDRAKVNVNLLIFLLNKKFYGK

Molecular target: HA-Hax1 (UniProt O00165)
Assay: co-IP; HEK293T cells transfected with Myc- or HA-tagged proteins, NP40 lysis buffer (1% NP40, 20 mM Tris-HCl pH 8.0, 0.8% NaCl, 10% glycerol), HA-agarose beads overnight at 4 °C, immunoblot

With “IQGAP1 ΔRGCT mutant (from UniProt P46940) (domain or fragment)” the binding was “no binding”.

Results are given in words; binding and its absence hold for the method and conditions named. In cells and extracts the contact can be indirect.
